Data as given in patent US20130259867A1.
No constants are given. Whether binding was seen depends on the method and setting. Some entries that bind do so weakly or less than the wild type.

By UniProt entry, the sequences of proteins in these tests, tags left out. Residues count along the entry.
UniProt P21860, residues 20-643: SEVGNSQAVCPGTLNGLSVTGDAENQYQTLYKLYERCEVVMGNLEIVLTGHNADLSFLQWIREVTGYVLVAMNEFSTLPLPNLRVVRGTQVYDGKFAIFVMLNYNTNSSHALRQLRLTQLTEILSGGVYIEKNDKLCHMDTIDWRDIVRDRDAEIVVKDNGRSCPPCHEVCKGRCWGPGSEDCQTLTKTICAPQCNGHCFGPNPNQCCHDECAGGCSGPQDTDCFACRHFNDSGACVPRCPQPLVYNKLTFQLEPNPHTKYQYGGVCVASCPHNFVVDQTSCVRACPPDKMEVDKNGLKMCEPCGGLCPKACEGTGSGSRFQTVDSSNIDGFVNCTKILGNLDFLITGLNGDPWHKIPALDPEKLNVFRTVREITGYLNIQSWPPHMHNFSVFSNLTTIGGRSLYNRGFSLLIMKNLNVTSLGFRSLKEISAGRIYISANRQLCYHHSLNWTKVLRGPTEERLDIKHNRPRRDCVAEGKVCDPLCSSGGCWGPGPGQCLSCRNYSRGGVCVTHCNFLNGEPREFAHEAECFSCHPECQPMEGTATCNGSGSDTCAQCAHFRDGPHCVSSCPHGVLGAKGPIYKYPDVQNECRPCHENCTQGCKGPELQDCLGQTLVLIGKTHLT

Experiments:
EGFR-ECD [1] = biological target: EGFR-ECD (UniProt P00533); test: plate binding assay (FIG. 1), OD read-out
HER3-ECD [2] = biological target: HER3-ECD (UniProt P21860); test: plate binding assay (FIG. 1), OD read-out
EGFR-ECD [3] = biological target: EGFR-ECD (UniProt P00533); test: competitive binding assay, immobilized EGFR-ECD, soluble HER3-ECD as competitor, OD read-out
HER3-ECD [4] = biological target: HER3-ECD (UniProt P21860); test: competitive binding assay, immobilized HER3-ECD, soluble EGFR-ECD as competitor, OD read-out

Measured: binding

B1: MEHD7945A (bispecific antibody, V domains shown)
VH: EVQLVESGGGLVQPGGSLRLSCAASGFTLSGDWIHWVRQAPGKGLEWVGEISAAGGYTDYADSVKGRFTISADTSKNTAYLQMNSLRAEDTAVYYCARESRVSFEAAMDYWGQGTLVTVSS
VL: DIQMTQSPSSLSASVGDRVTITCRASQNIATDVAWYQQKPGKAPKLLIYSASFLYSGVPSRFSGSGSGTDFTLTISSLQPEDFATYYCQQSEPEPYTFGQGTKVEIKR
binds: all assays above
